The list shows a part of the results.
Compound: CC1Cc2ccccc2N1C(=O)C1CCCN(C1)C(=O)CCl (mixture of isomers) [TRIM25 ligand 11 (diastereomer mixture)]
Assay: probe-labelled cysteine peptide fold change vs DMSO (competition) (log2 fold change); higher = less target engagement (more negative = stronger competition)
Conditions: THP-1, incubation time: 4 h
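Further: competitive chemoproteomic profiling in live THP-1 cells with an iodoacetamide desthiobiotin (IA-DTB) probe, comparing probe-labelled peptide intensities in compound-treated cells against DMSO-treated controls.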

Sequences of proteins named here, by UniProt entry; tags and fusion partners are left off. A change or cut given only in a name is not applied to a line headed by its entry.
UniProt Q9BZF1: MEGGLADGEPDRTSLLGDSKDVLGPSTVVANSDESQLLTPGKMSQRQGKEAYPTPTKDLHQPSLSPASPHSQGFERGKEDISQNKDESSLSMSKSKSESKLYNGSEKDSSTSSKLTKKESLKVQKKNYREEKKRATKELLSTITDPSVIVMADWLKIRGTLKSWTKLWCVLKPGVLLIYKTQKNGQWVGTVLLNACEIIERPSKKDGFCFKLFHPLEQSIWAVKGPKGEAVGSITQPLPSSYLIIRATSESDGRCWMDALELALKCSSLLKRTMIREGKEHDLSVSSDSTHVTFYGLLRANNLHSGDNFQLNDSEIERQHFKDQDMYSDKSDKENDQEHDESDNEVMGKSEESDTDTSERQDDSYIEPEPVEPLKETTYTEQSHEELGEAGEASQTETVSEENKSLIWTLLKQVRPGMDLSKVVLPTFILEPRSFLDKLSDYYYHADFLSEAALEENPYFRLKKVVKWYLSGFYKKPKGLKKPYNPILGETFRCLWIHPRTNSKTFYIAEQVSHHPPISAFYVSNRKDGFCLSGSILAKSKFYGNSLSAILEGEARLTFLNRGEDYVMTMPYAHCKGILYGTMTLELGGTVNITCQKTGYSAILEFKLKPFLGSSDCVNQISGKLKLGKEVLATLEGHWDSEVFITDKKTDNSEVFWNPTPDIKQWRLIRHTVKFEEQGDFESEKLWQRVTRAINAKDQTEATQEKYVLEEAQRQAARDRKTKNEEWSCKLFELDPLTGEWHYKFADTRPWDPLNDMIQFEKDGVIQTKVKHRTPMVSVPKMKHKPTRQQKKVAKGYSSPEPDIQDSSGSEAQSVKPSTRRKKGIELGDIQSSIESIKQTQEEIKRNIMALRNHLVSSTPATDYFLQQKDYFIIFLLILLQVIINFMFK
UniProt Q9BXW6, whole entry, looked up: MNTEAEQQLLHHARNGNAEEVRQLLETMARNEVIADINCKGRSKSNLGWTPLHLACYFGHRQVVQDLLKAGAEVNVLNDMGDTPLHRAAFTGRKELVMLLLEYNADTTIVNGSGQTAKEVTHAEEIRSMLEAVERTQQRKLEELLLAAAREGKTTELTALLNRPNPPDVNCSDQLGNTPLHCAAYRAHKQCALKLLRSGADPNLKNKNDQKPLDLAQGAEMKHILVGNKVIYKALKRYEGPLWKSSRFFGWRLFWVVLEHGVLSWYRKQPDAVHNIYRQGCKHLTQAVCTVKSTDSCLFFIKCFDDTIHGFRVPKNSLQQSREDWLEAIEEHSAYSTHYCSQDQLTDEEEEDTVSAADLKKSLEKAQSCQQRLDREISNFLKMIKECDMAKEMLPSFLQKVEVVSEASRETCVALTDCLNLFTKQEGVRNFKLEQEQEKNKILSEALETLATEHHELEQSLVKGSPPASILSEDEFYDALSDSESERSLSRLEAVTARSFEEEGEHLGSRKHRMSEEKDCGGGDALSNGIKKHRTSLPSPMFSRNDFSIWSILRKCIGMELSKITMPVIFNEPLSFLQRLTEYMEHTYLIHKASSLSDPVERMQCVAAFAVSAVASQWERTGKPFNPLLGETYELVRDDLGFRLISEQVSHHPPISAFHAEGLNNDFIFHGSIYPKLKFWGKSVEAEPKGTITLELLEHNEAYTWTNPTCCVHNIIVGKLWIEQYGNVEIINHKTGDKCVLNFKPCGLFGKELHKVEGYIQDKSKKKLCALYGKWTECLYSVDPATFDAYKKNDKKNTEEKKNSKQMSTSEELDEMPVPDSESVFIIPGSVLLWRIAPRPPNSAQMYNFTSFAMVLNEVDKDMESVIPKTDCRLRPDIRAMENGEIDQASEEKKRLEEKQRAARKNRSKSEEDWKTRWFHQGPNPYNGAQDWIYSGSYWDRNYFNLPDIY
UniProt Q9NPF4: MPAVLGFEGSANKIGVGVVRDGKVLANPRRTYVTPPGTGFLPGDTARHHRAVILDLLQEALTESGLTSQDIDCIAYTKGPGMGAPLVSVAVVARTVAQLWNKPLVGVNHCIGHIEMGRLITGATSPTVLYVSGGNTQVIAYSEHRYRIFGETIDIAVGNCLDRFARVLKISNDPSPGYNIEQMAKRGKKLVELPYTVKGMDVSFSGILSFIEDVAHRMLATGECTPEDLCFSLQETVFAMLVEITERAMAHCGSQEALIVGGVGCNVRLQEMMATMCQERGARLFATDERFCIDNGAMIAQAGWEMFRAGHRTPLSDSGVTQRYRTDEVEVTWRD
UniProt Q9H0X9: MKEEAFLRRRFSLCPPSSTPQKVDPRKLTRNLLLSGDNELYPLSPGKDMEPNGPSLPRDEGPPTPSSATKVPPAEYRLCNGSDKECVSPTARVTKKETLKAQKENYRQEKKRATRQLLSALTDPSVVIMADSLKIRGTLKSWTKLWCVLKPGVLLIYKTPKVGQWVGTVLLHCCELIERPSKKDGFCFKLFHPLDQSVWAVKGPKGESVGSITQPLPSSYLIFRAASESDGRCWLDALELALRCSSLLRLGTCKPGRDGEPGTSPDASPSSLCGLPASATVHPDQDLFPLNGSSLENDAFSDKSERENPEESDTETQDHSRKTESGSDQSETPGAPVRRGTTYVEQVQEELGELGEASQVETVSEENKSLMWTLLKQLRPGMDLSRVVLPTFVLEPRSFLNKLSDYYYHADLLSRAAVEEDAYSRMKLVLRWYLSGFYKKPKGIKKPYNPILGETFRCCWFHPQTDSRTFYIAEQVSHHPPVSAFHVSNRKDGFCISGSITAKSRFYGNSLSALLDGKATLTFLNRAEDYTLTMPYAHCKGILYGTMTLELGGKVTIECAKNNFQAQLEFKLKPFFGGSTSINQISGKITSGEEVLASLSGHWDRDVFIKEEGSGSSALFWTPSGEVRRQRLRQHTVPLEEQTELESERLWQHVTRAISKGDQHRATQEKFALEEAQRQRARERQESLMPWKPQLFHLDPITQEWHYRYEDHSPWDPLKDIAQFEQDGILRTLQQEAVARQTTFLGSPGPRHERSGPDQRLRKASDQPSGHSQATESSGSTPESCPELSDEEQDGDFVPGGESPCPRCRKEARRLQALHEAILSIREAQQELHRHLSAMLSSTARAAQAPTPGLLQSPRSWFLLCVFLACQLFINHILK
UniProt P22234: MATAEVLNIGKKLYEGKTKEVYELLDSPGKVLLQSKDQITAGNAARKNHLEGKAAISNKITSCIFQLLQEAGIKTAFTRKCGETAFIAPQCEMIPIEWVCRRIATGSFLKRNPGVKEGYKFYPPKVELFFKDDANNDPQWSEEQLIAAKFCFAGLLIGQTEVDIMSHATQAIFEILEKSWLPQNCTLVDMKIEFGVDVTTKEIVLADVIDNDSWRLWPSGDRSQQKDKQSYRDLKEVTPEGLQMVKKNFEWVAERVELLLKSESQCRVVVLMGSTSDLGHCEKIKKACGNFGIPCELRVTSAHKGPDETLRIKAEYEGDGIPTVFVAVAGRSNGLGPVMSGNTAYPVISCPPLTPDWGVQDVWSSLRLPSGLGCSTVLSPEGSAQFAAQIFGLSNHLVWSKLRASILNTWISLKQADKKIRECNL
UniProt O60313: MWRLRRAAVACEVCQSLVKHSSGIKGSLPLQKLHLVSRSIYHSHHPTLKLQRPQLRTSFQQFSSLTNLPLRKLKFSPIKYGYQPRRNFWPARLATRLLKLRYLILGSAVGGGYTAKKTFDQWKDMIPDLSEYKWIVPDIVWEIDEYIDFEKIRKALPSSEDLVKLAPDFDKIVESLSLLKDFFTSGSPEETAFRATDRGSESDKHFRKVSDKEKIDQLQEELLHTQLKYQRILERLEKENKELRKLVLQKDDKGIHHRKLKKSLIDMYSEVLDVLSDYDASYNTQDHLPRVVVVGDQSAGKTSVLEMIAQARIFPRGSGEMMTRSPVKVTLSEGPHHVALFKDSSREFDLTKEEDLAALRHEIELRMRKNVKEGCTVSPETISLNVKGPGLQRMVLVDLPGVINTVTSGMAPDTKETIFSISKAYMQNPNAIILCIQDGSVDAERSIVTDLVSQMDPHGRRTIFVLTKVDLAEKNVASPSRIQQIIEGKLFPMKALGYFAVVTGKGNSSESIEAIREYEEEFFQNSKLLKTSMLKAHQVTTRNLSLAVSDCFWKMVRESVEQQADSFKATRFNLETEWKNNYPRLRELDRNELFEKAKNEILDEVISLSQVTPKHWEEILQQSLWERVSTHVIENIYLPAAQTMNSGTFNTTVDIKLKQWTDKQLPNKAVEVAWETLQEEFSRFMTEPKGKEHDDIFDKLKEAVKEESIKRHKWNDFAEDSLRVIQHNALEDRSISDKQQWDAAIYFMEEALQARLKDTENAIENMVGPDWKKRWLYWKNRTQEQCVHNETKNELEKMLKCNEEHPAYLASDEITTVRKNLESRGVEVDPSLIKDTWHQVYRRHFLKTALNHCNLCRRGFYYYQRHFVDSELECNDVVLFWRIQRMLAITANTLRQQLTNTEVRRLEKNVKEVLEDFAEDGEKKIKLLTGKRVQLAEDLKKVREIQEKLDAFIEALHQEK
UniProt Q58A45: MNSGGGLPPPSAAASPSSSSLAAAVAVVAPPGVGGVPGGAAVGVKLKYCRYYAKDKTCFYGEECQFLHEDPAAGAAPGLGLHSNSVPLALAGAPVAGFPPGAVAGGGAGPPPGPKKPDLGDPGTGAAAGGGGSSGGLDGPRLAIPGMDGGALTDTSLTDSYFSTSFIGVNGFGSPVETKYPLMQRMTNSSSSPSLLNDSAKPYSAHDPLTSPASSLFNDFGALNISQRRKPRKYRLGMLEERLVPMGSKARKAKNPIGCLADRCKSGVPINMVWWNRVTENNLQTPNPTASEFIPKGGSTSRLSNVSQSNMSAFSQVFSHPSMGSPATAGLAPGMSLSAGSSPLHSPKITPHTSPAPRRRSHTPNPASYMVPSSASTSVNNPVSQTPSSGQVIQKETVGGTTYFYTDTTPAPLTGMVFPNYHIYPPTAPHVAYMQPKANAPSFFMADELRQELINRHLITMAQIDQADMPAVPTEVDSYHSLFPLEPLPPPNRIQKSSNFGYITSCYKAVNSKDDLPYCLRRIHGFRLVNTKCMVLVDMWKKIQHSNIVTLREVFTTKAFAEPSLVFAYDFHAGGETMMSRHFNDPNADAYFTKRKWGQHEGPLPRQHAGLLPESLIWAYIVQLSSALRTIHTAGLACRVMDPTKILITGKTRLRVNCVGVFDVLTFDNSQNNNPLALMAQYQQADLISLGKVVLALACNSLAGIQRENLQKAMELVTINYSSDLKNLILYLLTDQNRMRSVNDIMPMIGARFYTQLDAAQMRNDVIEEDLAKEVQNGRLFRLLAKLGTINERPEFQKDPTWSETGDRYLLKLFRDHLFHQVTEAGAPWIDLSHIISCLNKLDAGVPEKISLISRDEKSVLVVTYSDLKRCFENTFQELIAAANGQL
UniProt Q8N573: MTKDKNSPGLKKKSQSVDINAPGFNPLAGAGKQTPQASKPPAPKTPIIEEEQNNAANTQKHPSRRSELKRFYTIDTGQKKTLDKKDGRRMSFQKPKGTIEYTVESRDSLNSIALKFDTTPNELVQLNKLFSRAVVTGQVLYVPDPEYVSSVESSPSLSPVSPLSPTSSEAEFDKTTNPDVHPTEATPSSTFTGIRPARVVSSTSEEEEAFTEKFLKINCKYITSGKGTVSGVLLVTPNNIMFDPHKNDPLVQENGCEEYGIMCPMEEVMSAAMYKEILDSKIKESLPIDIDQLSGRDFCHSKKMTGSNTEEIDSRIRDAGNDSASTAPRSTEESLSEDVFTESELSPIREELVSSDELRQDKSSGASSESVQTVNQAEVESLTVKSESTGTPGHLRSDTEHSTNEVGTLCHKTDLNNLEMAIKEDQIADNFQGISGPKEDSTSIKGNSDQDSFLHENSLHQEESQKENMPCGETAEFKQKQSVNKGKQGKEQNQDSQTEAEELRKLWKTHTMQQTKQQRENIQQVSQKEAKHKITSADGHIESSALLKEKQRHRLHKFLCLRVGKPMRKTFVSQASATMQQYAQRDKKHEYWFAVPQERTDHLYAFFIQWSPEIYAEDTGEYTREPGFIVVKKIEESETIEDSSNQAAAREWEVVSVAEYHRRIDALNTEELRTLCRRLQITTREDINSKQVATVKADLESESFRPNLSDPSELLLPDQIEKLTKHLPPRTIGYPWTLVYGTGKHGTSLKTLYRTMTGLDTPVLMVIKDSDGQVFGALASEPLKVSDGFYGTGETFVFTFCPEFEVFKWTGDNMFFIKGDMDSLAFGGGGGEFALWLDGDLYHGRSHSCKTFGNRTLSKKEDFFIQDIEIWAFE
UniProt Q9NUU6: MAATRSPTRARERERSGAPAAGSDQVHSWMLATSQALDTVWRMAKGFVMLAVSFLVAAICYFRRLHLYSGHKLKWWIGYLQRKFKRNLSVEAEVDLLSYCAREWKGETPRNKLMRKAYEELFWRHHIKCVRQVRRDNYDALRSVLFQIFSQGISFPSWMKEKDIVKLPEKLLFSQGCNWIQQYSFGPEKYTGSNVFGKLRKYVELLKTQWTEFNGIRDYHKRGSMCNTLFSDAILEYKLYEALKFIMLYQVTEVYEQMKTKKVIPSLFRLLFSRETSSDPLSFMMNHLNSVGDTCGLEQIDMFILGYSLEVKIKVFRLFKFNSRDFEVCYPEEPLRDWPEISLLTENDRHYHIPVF

Target: PARP12_Q9H0J9_276_DSSGSVSPNTLSQEEGDQICLYHIR (UniProt Q9H0J9)
- probe-labelled cysteine peptide fold change (10 µM): -0.129
- probe-labelled cysteine peptide fold change (50 µM): 0.172

Target: OSBPL8_Q9BZF1_575_GEDYVMTMPYAHCK (UniProt Q9BZF1)
- probe-labelled cysteine peptide fold change (10 µM): 0.126
- probe-labelled cysteine peptide fold change (50 µM): 0.0805

Target: OSBPL1A_Q9BXW6_769_LCALYGK (UniProt Q9BXW6)
- probe-labelled cysteine peptide fold change (10 µM): -0.000747
- probe-labelled cysteine peptide fold change (50 µM): -0.00343

Target: OSGEP_Q9NPF4_277_LQEMMATMCQER (UniProt Q9NPF4)
- probe-labelled cysteine peptide fold change (10 µM): 0.0307
- probe-labelled cysteine peptide fold change (50 µM): -0.0484

Target: OSBPL5_Q9H0X9_459_CCWFHPQTDSR (UniProt Q9H0X9)
- probe-labelled cysteine peptide fold change (10 µM): -0.0592
- probe-labelled cysteine peptide fold change (50 µM): 0.0744

Target: PARN_O95453_169_CPVTIPEDQK (UniProt O95453)
- probe-labelled cysteine peptide fold change (10 µM): 0.0951
- probe-labelled cysteine peptide fold change (50 µM): -0.119

Target: PAPSS2_O95340_155_IHESAGLPFFEIFVDAPLNICESR (UniProt O95340)
- probe-labelled cysteine peptide fold change (10 µM): -0.0844
- probe-labelled cysteine peptide fold change (50 µM): -0.325

Target: OTX1_P32242_340_LNFNSPDCLDYK (UniProt P32242)
- probe-labelled cysteine peptide fold change (10 µM): 0.161
- probe-labelled cysteine peptide fold change (50 µM): -0.0204

Target: OSBPL8_Q9BZF1_617_LKPFLGSSDCVNQISGK (UniProt Q9BZF1)
- probe-labelled cysteine peptide fold change (10 µM): 0.163
- probe-labelled cysteine peptide fold change (50 µM): -0.0286

Target: PARP16_Q8N5Y8_169_LENFHSIIHNGLHCHLNK (UniProt Q8N5Y8)
- probe-labelled cysteine peptide fold change (10 µM): -0.0777
- probe-labelled cysteine peptide fold change (50 µM): -0.146

Target: PAICS_P22234_100_KCGETAFIAPQCEMIPIEWVCR (UniProt P22234)
- probe-labelled cysteine peptide fold change (10 µM): -0.254
- probe-labelled cysteine peptide fold change (50 µM): -0.0229

Target: PAICS_P22234_295_ACGNFGIPCELR (UniProt P22234)
- probe-labelled cysteine peptide fold change (10 µM): 0.0444
- probe-labelled cysteine peptide fold change (50 µM): -0.125

Target: OPA1_O60313_801_CNEEHPAYLASDEITTVRK (UniProt O60313)
- probe-labelled cysteine peptide fold change (10 µM): 0.00749
- probe-labelled cysteine peptide fold change (50 µM): -0.0711

Target: PAN3_Q58A45_506_SSNFGYITSCYK (UniProt Q58A45)
- probe-labelled cysteine peptide fold change (10 µM): -0.243
- probe-labelled cysteine peptide fold change (50 µM): 0.0441

Target: OXR1_Q8N573-2_50_EPAQGDLGCGSPPHRPPAPSSPEGPDTGQK (UniProt Q8N573)
- probe-labelled cysteine peptide fold change (10 µM): -0.184
- probe-labelled cysteine peptide fold change (50 µM): -0.185

Target: OTULINL_Q9NUU6_177_LLFSQGCNWIQQYSFGPEK (UniProt Q9NUU6)
- probe-labelled cysteine peptide fold change (10 µM): 0.0119
- probe-labelled cysteine peptide fold change (50 µM): -0.0217
